{"source": "PubChem BioAssay AID1259327 (Drosophila RNAi Screening Center, 2017)", "screen": "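Baseline ATP after transmembrane-protein gene knock-down with water vehicle only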", "system": "Drosophila S2R+ cells", "knock-down reagent": "long dsRNA against Drosophila genes", "time to read-out": "5 days (water added on day 4, read one day later)", "treatment": "water added as vehicle, no metal, one day before read-out", "detection": "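Total ATP measured by luciferase light, scaled to plate mean, duplicates averaged, then z-scored across plates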", "direction": "ATP z-score: higher = more total ATP than typical wells; ATP luminescence: higher = more total ATP", "hit rule": "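Called active when the ATP z-score exceeds 1.5 or falls below -1.5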", "calls": "active = hit: ATP up or down; inactive = no clear ATP change", "note": "Here is one part, drawn at random, of about 3,100 deposited reagents. 378 of them (12%) were called active. 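Hits include both directions; z-score sign shows ATP rise or fall; raw luminescence values are not plate-normalised.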 A number with no mark means an inactive call. Not stated in the record: the amount of reagent."}
{"target":"Catsup (Catecholamines up)","DRSC id":"DRSC03288","ATP z-score, duplicate mean":0.22,"ATP luminescence, replicate 1 (RLU)":7.47e5,"ATP luminescence, replicate 2 (RLU)":7.52e5}
{"target":"Catsup (Catecholamines up)","DRSC id":"DRSC25727","ATP z-score, duplicate mean":-0.446,"ATP luminescence, replicate 1 (RLU)":7.98e5,"ATP luminescence, replicate 2 (RLU)":7.91e5}
{"target":"Gr59c (Gustatory receptor 59c)","DRSC id":"DRSC04185","ATP z-score, duplicate mean":-0.164,"ATP luminescence, replicate 1 (RLU)":7.34e5,"ATP luminescence, replicate 2 (RLU)":6.85e5}
{"target":"CLS (Cardiolipin synthase)","DRSC id":"DRSC15642","ATP z-score, duplicate mean":-0.561,"ATP luminescence, replicate 1 (RLU)":2.76e5,"ATP luminescence, replicate 2 (RLU)":6.96e5}
{"target":"CLS (Cardiolipin synthase)","DRSC id":"DRSC28289","ATP z-score, duplicate mean":-0.581,"ATP luminescence, replicate 1 (RLU)":7.49e5,"ATP luminescence, replicate 2 (RLU)":7.57e5}
{"target":"Rh6 (Rhodopsin 6)","DRSC id":"DRSC16823","ATP z-score, duplicate mean":0.664,"ATP luminescence, replicate 1 (RLU)":3.47e5,"ATP luminescence, replicate 2 (RLU)":7.87e5}
{"target":"Rh6 (Rhodopsin 6)","DRSC id":"DRSC26166","ATP z-score, duplicate mean":1.02,"ATP luminescence, replicate 1 (RLU)":9.64e5,"ATP luminescence, replicate 2 (RLU)":9.90e5}
{"target":"ATP7","DRSC id":"DRSC19819","ATP z-score, duplicate mean":"-1.72 (active)","ATP luminescence, replicate 1 (RLU)":4.76e5,"ATP luminescence, replicate 2 (RLU)":6.36e5}
{"target":"ATP7","DRSC id":"DRSC39460","ATP z-score, duplicate mean":-0.207,"ATP luminescence, replicate 1 (RLU)":4.65e5,"ATP luminescence, replicate 2 (RLU)":4.15e5}
{"target":"tinc (tincar)","DRSC id":"DRSC14799","ATP z-score, duplicate mean":-0.215,"ATP luminescence, replicate 1 (RLU)":7.39e5,"ATP luminescence, replicate 2 (RLU)":6.98e5}
{"target":"tinc (tincar)","DRSC id":"DRSC16308","ATP z-score, duplicate mean":0.123,"ATP luminescence, replicate 1 (RLU)":3.44e5,"ATP luminescence, replicate 2 (RLU)":6.76e5}
{"target":"Zip89B (Zinc/iron regulated transporter-related protein 89B)","DRSC id":"DRSC16128","ATP z-score, duplicate mean":0.56,"ATP luminescence, replicate 1 (RLU)":3.25e5,"ATP luminescence, replicate 2 (RLU)":8.22e5}
{"target":"Zip89B (Zinc/iron regulated transporter-related protein 89B)","DRSC id":"DRSC29691","ATP z-score, duplicate mean":-0.475,"ATP luminescence, replicate 1 (RLU)":7.87e5,"ATP luminescence, replicate 2 (RLU)":7.46e5}
{"target":"AstC-R1 (Allatostatin C receptor 1)","DRSC id":"DRSC10799","ATP z-score, duplicate mean":0.282,"ATP luminescence, replicate 1 (RLU)":9.49e5,"ATP luminescence, replicate 2 (RLU)":9.17e5}
{"target":"AstC-R1 (Allatostatin C receptor 1)","DRSC id":"DRSC29648","ATP z-score, duplicate mean":0.739,"ATP luminescence, replicate 1 (RLU)":9.69e5,"ATP luminescence, replicate 2 (RLU)":8.59e5}
{"target":"nrv1 (nervana 1)","DRSC id":"DRSC03382","ATP z-score, duplicate mean":-1.46,"ATP luminescence, replicate 1 (RLU)":3.25e5,"ATP luminescence, replicate 2 (RLU)":4.32e5}
{"target":"lz (lozenge)","DRSC id":"DRSC25157","ATP z-score, duplicate mean":-0.965,"ATP luminescence, replicate 1 (RLU)":7.54e5,"ATP luminescence, replicate 2 (RLU)":7.06e5}
{"target":"lz (lozenge)","DRSC id":"DRSC37587","ATP z-score, duplicate mean":-0.587,"ATP luminescence, replicate 1 (RLU)":4.92e5,"ATP luminescence, replicate 2 (RLU)":5.68e5}
{"target":"slo (slowpoke)","DRSC id":"DRSC17057","ATP z-score, duplicate mean":0.486,"ATP luminescence, replicate 1 (RLU)":7.44e5,"ATP luminescence, replicate 2 (RLU)":7.67e5}
{"target":"Gr47b (Gustatory receptor 47b)","DRSC id":"DRSC05275","ATP z-score, duplicate mean":-0.263,"ATP luminescence, replicate 1 (RLU)":6.39e5,"ATP luminescence, replicate 2 (RLU)":7.93e5}
{"target":"Gr47b (Gustatory receptor 47b)","DRSC id":"DRSC39674","ATP z-score, duplicate mean":0.556,"ATP luminescence, replicate 1 (RLU)":4.91e5,"ATP luminescence, replicate 2 (RLU)":5.16e5}
{"target":"wit (wishful thinking)","DRSC id":"DRSC08741","ATP z-score, duplicate mean":-0.406,"ATP luminescence, replicate 1 (RLU)":6.89e5,"ATP luminescence, replicate 2 (RLU)":6.86e5}
{"target":"wit (wishful thinking)","DRSC id":"DRSC26091","ATP z-score, duplicate mean":0.783,"ATP luminescence, replicate 1 (RLU)":9.27e5,"ATP luminescence, replicate 2 (RLU)":9.68e5}
{"target":"wit (wishful thinking)","DRSC id":"DRSC37034","ATP z-score, duplicate mean":"-1.8 (active)","ATP luminescence, replicate 1 (RLU)":4.00e5,"ATP luminescence, replicate 2 (RLU)":4.54e5}
{"target":"Trc8 (TRC8 ring finger protein)","DRSC id":"DRSC15437","ATP z-score, duplicate mean":-0.206,"ATP luminescence, replicate 1 (RLU)":6.82e5,"ATP luminescence, replicate 2 (RLU)":6.87e5}
{"target":"Trc8 (TRC8 ring finger protein)","DRSC id":"DRSC28575","ATP z-score, duplicate mean":-0.411,"ATP luminescence, replicate 1 (RLU)":8.95e5,"ATP luminescence, replicate 2 (RLU)":6.62e5}
{"target":"VhaM9.7-a (Vacuolar H[+] ATPase M9.7 subunit a)","DRSC id":"DRSC08289","ATP z-score, duplicate mean":-0.781,"ATP luminescence, replicate 1 (RLU)":7.81e5,"ATP luminescence, replicate 2 (RLU)":8.05e5}
{"target":"VhaM9.7-a (Vacuolar H[+] ATPase M9.7 subunit a)","DRSC id":"DRSC28340","ATP z-score, duplicate mean":0.934,"ATP luminescence, replicate 1 (RLU)":9.91e5,"ATP luminescence, replicate 2 (RLU)":8.84e5}
{"target":"Ir75c (Ionotropic receptor 75c)","DRSC id":"DRSC10190","ATP z-score, duplicate mean":-1.04,"ATP luminescence, replicate 1 (RLU)":6.35e5,"ATP luminescence, replicate 2 (RLU)":6.23e5}
{"target":"Gr9a (Gustatory receptor 9a)","DRSC id":"DRSC22506","ATP z-score, duplicate mean":0.491,"ATP luminescence, replicate 1 (RLU)":9.56e5,"ATP luminescence, replicate 2 (RLU)":8.66e5}
{"target":"Gr9a (Gustatory receptor 9a)","DRSC id":"DRSC39581","ATP z-score, duplicate mean":-0.212,"ATP luminescence, replicate 1 (RLU)":4.28e5,"ATP luminescence, replicate 2 (RLU)":4.75e5}

Taken from above:
lz (lozenge) [DRSC37587], ATP z-score, duplicate mean = -0.587
Under “ATP luminescence, replicate 1 (RLU)”, Catsup (Catecholamines up) [DRSC25727] reads 7.98e5
